Results: article doi:10.1101/2024.02.02.578710

Molecular target: E-cadherin (mouse (endogenous in 4T1))
Test: co-IP

binding: binds
B1: p120-catenin isoform 1 (protein, UniProt P30999 1-938)
chain: MDDSEVESTASILASVKEQEAQFEKLTRALEEERRHVSAQLERVRVSPQDANSLMANGTLTRRHQNGRFVGDADLERQKFSDLKLNGPQDHNHLLYSTIPRMQEPGQIVETYTEEDPEGAMSVVSVETTDDGTTRRTETTVKKVVKTMTTRTVQPVPMGPDGLPVDASAVSNNYIQTLGRDFRKNGNGGPGPYVGQAGTATLPRNFHYPPDGYGRHYEDGYPGGSDNYGSLSRVTRIEERYRPSMEGYRAPSRQDVYGPQPQVRVGGSSVDLHRFHPEPYGLEDDQRSMGYDDLDYGMMSDYGTARRTGTPSDPRRRLRSYEDMIGEEVPPDQYYWAPLAQHERGSLASLDSLRKGMPPPSNWRQPELPEVIAMLGFRLDAVKSNAAAYLQHLCYRNDKVKTDVRKLKGIPILVGLLDHPKKEVHLGACGALKNISFGRDQDNKIAIKNCDGVPALVRLLRKARDMDLTEVITGTLWNLSSHDSIKMEIVDHALHALTDEVIIPHSGWEREPNEDCKPRHIEWESVLTNTAGCLRNVSSERSEARRKLRECDGLVDALIFIVQAEIGQKDSDSKLVENCVCLLRNLSYQVHREIPQAERYQEALPTVANSTGPHAASCFGAKKGKDEWFSRGKKPTEDPANDTVDFPKRTSPARGYELLFQPEVVRIYISLLKESKTPAILEASAGAIQNLCAGRWTYGRYIRSALRQEKALSAIAELLTSEHERVVKAASGALRNLAVDARNKELIGKHAIPNLVKNLPGGQQNSSWNFSEDTVVSILNTINEVIAENLEAAKKLRETQGIEKLVLINKSGNRSEKEVRAAALVLQTIWGYKELRKPLEKEGWKKSDFQVNLNNASRSQSSHSYDDSTLPLIDRNQKSDKKPDREEIPMSNMGSNTKSLDNNYSTLNERGDHNRTLDRSGDLGDMEPLKGAPLMQKI

Results are given in words; binding and its absence hold for the method and conditions named. Binding seen in cells or lysates may run through a third protein. Binding calls can cover weak binding; strength is not graded here.
